According to US20070265223A1, “COMPOSITIONS AND METHODS OF ENHANCING SURVIVABILITY AND REDUCING INJURY OF CELLS, TISSUES, ORGANS, AND ORGANISMS UNDER HYPOXIC OR ISCHEMIC CONDITIONS” (IKARIA, INC., priority 2006, published 2007):

Tested on: mice subjected to lethal hypoxia
Assay: Protection of mice from lethal hypoxia using 5′-AMP
Type: in vivo, mouse (C57BI/6)
Details: 4% oxygen for 60 min
Method: The ability of 5′-AMP to protect mice from lethal hypoxia was determined by comparing the effects of hypoxia on mice treated with 5′-AMP to the effects of hypoxia on untreated mice. Male C57BI/6 mice, 5-6 weeks old, with implanted jugular vein catheter (Taconic) were implanted dorsally with a subcutaneous RFID temperature sensor (IPTT-300, Bio Medic Data Systems, Inc.) and allowed to recover for at least 24 hours. Adenosine-5′-monophosphate (AMP sodium salt, Sigma) was dissolved in water, the osmolarity was adjusted with sodium chloride to 300 mOsm, the pH was adjusted with NaOH to 6.3, and the solution was filtered through a 0.2 um filter. The final AMP concentration was 40 mM. Mice were placed into a tall glass-bottom jar with opaque walls and infused via the jugular vein at a rate of 0.8 ul/min for 59.5 min followed by 1.6 ul/min for 12.8 min (total AMP dose=145 umol/kg) with a syringe pump (Harvard Apparatus), until their subcutaneous temperature had decreased to about 33° C. The infusion was stopped, and the mice were exposed for 60 min to an atmosphere of 4% oxygen constructed by mixing air and nitrogen using mass flow controllers (Sierra Instruments). During the infusion and exposure to hypoxia, the animals' subcutaneous temperature was read every 3-5 min and their vital signs were monitored. […] A control mouse was exposed to hypoxia, and its time of death was recorded. […]

SMILES: Nc1ncnc2c1ncn2[C@@H]1O[C@H](COP(=O)(O)O)[C@@H](O)[C@H]1O [5′-AMP, Adenosine-5′-monophosphate]
- lowest subcutaneous temperature (mouse MJVC80, total AMP dose 145 umol/kg): 23.4 °C
- lowest subcutaneous temperature (mouse MJVC83, total AMP dose 69 umol/kg): 24 °C
